{
  "source": "paper PMC12297036",
  "about": "(Iranian Journal of Pharmaceutical Research : IJPR, 2025)",
  "origin": "cited, not measured here",
  "data": [
    {"set-up": "method as in earlier work", "details": "adsorption by lanthanum-loaded biochar; ref 16 (Yuan et al.)", "units": {"maximum adsorption of BC-La": "mg/g"}, "values": [
      {"smiles": "CC(O)(P(=O)(O)O)P(=O)(O)O", "note": "[HEDP, hydroxyethylidene diphosphonic acid]", "maximum adsorption of BC-La": 15.80},
      {"smiles": "O=P(O)(O)O[C@H]1[C@H](OP(=O)(O)O)[C@@H](OP(=O)(O)O)[C@H](OP(=O)(O)O)[C@@H](OP(=O)(O)O)[C@H]1OP(=O)(O)O", "note": "[IHP, phytic acid]", "maximum adsorption of BC-La": 85.85},
      {"smiles": "O=P(O)(O)OP(=O)(O)O", "note": "[PYP, sodium PYP]", "maximum adsorption of BC-La": 14.45}
    ]}
  ]
}
